Results as given in US20030194409A1, “Conjugate heat shock protein-binding peptides” (priority 2002, published 2003).
Part of at least one peptide drawing is inferred or uncertain, most often the ends. Where a SMILES comes first, the peptide text is derived from it.

Test system: EG7 cells
Assay: EG7 tumor cell challenge after immunization
Type: in vivo, C57BL/6 mice
Procedure: C57BL/6 mice, 8-10 weeks old, were immunized intradermally with one of the following (eight mice in each group): (a)5 μl TiterMax and 5 μg OVA peptide; (b) 15 μg hsp70 and 5 μg OVA peptide; (c) 5 μl TiterMax and […] (OVA-BiP); (d) 15 μg hsp70 and 12 μg OVA-BiP; (e) control (four animals only in this group); (f) 5 μg OVA peptide; or (g) 12 μg OVA-BiP. The mice then were injected with 4×10^6 EG7 cells. Tumor size was evaluated over time by measuring two diameters, the greatest diameter and the diameter perpendicular to the greatest diameter, and then calculating the average diameter. The results are shown in FIGS. 8A-G (corresponding to groups a-g, as set forth above).

CC[C@H](C)[C@H](NC(=O)[C@@H](NC(=O)[C@@H](N)CO)[C@@H](C)CC)C(=O)N[C@@H](CC(N)=O)C(=O)N[C@@H](Cc1ccccc1)C(=O)N[C@@H](CCC(=O)O)C(=O)N[C@@H](CCCCN)C(=O)N[C@@H](CC(C)C)C(=O)NCC(=O)N[C@@H](CO)C(=O)NCC(=O)N[C@@H](Cc1c[nH]cn1)C(=O)N[C@@H](Cc1c[nH]c2ccccc12)C(=O)N[C@@H](CC(=O)O)C(=O)N[C@@H](Cc1ccccc1)C(=O)N[C@@H](C)C(=O)N[C@@H](Cc1c[nH]c2ccccc12)C(=O)N1CCC[C@H]1C(=O)N[C@@H](Cc1c[nH]c2ccccc12)C(=O)O [OVA-BiP] (H-SIINFEKLGSGHWDFAWPW-OH) was tested, and the “reducing tumor diameter and preventing detectable tumor formation” value (administered with TiterMax adjuvant) was “superior to OVA peptide”, the average tumor diameters (peptide alone, without TiterMax or hsp70) was “smaller” and the tumor-free animals (peptide alone, without TiterMax or hsp70, eight mice per group) was 2/8.
